Results: patent publication US20190309300A1 (TECHNION RESEARCH AND DEVELOPMENT FOUNDATION, published 2019)
These are yes or no findings as the source states them, for the method shown. In cells and extracts the contact can be indirect. Some results given as binding are weak or reduced against the parent protein; the word gives no strength. For some of these results: Sequences can lack the tags named with a protein. One block for each molecule: values may come before it.

Chains of the proteins cited; added tags and fusions are not shown. Lines headed by an entry give the natural chain unless they say otherwise; changes in a name come on top.
UniProt P56524: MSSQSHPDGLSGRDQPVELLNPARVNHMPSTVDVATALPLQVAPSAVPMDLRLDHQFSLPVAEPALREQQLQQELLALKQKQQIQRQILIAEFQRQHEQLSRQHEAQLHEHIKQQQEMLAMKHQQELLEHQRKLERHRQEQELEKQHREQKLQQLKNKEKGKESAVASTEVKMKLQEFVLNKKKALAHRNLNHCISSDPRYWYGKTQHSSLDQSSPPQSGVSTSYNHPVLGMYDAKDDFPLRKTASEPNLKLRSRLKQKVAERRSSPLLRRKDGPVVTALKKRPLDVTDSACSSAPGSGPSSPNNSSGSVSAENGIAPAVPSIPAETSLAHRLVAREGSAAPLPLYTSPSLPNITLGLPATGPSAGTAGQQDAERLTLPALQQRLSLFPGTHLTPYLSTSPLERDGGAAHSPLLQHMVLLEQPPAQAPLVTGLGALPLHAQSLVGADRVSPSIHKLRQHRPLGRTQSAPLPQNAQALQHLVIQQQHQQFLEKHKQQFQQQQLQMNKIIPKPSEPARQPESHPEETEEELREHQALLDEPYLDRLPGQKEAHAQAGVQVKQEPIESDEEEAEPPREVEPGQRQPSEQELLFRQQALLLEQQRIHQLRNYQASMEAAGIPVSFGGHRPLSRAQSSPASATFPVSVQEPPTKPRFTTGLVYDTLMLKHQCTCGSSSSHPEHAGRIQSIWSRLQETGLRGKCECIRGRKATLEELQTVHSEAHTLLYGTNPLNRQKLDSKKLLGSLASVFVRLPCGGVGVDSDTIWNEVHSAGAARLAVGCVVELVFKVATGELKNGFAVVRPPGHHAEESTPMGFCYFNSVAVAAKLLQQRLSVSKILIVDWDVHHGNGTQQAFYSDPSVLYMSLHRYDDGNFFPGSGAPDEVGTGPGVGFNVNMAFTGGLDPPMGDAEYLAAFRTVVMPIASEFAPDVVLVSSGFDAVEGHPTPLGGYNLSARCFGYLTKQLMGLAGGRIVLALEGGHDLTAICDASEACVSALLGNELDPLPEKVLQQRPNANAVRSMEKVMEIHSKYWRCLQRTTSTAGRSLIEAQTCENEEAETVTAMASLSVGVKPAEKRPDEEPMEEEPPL

How the values were obtained:
[1] = target: T1, flag tagged full length HDAC4 (human, UniProt P56524 1-1084); assay: summary of Example 6 (RRS, co-immunoprecipitation, co-localization)
T1 construct: Full length, expressed in transfected cells and immunoprecipitated from lysate; also called Flag-HDAC4; pcDNA HDAC4-flag; not shown: Flag tag

[2] = target: T1, flag tagged full length HDAC4; assay: co-immunoprecipitation, IP anti-Flag, blot anti-HA (FIG. 7B)
Description: Cultured cells were washed with ice-cold phosphate-buffered saline (PBS) buffer and lysed in buffer containing 50 mM Tris, pH 7.5, 150 mM NaCl, 1 mM EDTA, and 1% NP-40. 400 μg of protein was immunoprecipitated with anti-Flag (Sigma-Aldrich), or IgG antibodies (negative control) and protein A/G agarose beads (Santa Cruz Biotechnology, Inc.) as described previously [Kehat I, et al., Modulation of chromatin position and gene expression by HDAC4 interaction with nucleoporins. J Cell Biol 2011, 193, 21-29]. Beads were washed three times with buffer and suspended in 30 μl of Laemmli buffer. Proteins were separated on an SDS gel, blotted, and detected with primary antibody recognizing HA (Santa Cruz Biotechnology, Inc. sc-805) or flag (Sigma-Aldrich).

[3] = target: 3HA tagged full length ENIGMA (Pdlim7) (mouse) (UniProt Q3TJD7); assay: co-immunoprecipitation, IP anti-HA, blot anti-His (FIGS. 7D and 7E)
[4] = target: 3HA tagged full length ENIGMA (Pdlim7) (mouse) (UniProt Q3TJD7); assay: co-immunoprecipitation, IP anti-HA, blot anti-His (FIG. 7D)
[5] = target: T1, flag tagged full length HDAC4; assay: co-immunoprecipitation, IP anti-Flag, blot anti-HA (FIG. 7C)
[6] = target: T1, flag tagged full length HDAC4; assay: summing-up sentence of the RRS and co-immunoprecipitation mapping

binding [1]: binds
binding [2]: binds
Molecule: 3HA tagged full length ENIGMA (Pdlim7) (from UniProt Q3TJD7 1-457)

binding [3]: binds
Molecule: 6xHis tagged HDAC4 fragment of amino acids 3-222 (from UniProt P56524 3-222)

binding [3]: binds
binding [4]: binds
Molecule: 6xHis tagged whole N-terminal fragment of HDAC4 (aa 3-628) (from UniProt P56524 3-628)

binding [5]: binds
B1: 3HA tagged ENIGMA construct containing LIM domains 2+3 (protein, mouse, UniProt Q3TJD7 339-457, looked up, not shown: small tags and cut ends)
chain: PNCAKCKKKITGEIMHALKMTWHVHCFTCAACKTPIRNRAFYMEEGAPYCERDYEKMFGTKCRGCDFKIDAGDRFLEALGFSWHDTCFVCAICQINLEGKTFYSKKDKPLCKSHAFSHV

binding [6]: binds
binding [2]: binds
binding [5]: binds
B2: 3HA tagged ENIGMA fragment containing only the three LIM domains (protein, mouse, UniProt Q3TJD7 280-457, looked up, not shown: small tags and cut ends)
chain: PVCHQCHKIIRGRYLVALGHAYHPEEFVCSQCGKVLEEGGFFEEKGAIFCPSCYDVRYAPNCAKCKKKITGEIMHALKMTWHVHCFTCAACKTPIRNRAFYMEEGAPYCERDYEKMFGTKCRGCDFKIDAGDRFLEALGFSWHDTCFVCAICQINLEGKTFYSKKDKPLCKSHAFSHV

binding [5]: binds
B3: 3HA tagged ENIGMA construct containing LIM domains 1+2 (protein, mouse, UniProt Q3TJD7 280-398, looked up, not shown: small tags and cut ends)
chain: PVCHQCHKIIRGRYLVALGHAYHPEEFVCSQCGKVLEEGGFFEEKGAIFCPSCYDVRYAPNCAKCKKKITGEIMHALKMTWHVHCFTCAACKTPIRNRAFYMEEGAPYCERDYEKMFGT
